These results are taken from US20210171598A1, “PEPTIDE HORMONE WITH ONE OR MORE O-GLYCANS” (priority 2017, published 2021).

The series is described as follows: O-glycoproteomics (LWAC enrichment, nLC-MS/MS) identification of O-glycosites on peptide hormones. The note with it: O-glycosite; for Site position (identified or conserved in humans): residue numbered from Peptide Start 1, Table 6C.

As to Glucago-like peptide 1 (7-36), the “Site position (identified or conserved in humans)” value is given as “T5 or T7 or S8 (Ambiguous)”. Further, the “Site position (Bold); identified or conserved in human, Italic: identified in non-human and not conserved” value (residue numbered from Peptide Start 1, Table 6B) is “T5 or T7 or S8 (Ambiguous)”.
Regarding Insulin B chain, the “Site position (identified or conserved in humans)” value is reported as “T27 (Ambiguous)”.
